Reference: publication doi:10.1101/2024.02.25.581915

By UniProt entry, the sequences of proteins in these tests, tags left out. Where a name states a change or a piece, a line headed by the entry shows the natural chain unless it says otherwise.
UniProt P60896: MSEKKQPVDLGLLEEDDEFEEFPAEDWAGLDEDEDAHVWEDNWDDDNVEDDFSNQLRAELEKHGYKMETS
UniProt P67775: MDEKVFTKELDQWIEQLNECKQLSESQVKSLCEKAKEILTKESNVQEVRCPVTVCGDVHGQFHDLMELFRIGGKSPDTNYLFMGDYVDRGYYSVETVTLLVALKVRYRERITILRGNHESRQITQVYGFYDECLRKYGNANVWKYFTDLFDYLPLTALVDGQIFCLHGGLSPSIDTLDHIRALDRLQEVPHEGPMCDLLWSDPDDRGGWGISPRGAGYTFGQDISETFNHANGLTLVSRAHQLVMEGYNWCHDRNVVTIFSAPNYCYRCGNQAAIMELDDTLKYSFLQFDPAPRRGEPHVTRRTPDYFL

Biological target: Flag-tagged DSS1 (pcDNA5-StFLAG-DSS1, inducible in HEK293 Flp-In T-REx cells) (human) (UniProt P60896)
Assay: affinity purification with mass spectrometry

binding: binds
Substance: PP2A-C (phosphatase module subunit of INTAC) (from UniProt P67775)

These are yes or no findings as the source states them, for the method shown. In cells and extracts the contact can be indirect. Here binding means that the protein was enriched with, or labelled near, the bait; the list need not be complete.
